From article PMC8318901
Results are given in words; binding and its absence hold for the method and conditions named. In cells and extracts the contact can be indirect. Some results given as binding are weak or reduced against the parent protein; the word gives no strength.

The chains behind the UniProt entries cited, without tags or fusion partners.
UniProt P62137: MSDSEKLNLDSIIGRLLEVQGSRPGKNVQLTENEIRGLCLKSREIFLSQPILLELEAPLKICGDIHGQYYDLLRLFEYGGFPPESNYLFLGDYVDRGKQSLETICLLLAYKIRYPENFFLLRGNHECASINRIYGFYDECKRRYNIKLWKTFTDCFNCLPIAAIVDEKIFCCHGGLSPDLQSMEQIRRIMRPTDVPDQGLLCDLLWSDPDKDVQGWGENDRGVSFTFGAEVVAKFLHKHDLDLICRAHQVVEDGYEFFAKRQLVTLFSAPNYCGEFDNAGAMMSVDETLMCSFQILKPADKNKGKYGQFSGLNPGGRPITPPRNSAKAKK

Target: T1, thiazide-sensitive sodium-chloride cotransporter (NCC) (mouse (endogenous in renal cortical tubules)) (UniProt P59158)
T1 sequence: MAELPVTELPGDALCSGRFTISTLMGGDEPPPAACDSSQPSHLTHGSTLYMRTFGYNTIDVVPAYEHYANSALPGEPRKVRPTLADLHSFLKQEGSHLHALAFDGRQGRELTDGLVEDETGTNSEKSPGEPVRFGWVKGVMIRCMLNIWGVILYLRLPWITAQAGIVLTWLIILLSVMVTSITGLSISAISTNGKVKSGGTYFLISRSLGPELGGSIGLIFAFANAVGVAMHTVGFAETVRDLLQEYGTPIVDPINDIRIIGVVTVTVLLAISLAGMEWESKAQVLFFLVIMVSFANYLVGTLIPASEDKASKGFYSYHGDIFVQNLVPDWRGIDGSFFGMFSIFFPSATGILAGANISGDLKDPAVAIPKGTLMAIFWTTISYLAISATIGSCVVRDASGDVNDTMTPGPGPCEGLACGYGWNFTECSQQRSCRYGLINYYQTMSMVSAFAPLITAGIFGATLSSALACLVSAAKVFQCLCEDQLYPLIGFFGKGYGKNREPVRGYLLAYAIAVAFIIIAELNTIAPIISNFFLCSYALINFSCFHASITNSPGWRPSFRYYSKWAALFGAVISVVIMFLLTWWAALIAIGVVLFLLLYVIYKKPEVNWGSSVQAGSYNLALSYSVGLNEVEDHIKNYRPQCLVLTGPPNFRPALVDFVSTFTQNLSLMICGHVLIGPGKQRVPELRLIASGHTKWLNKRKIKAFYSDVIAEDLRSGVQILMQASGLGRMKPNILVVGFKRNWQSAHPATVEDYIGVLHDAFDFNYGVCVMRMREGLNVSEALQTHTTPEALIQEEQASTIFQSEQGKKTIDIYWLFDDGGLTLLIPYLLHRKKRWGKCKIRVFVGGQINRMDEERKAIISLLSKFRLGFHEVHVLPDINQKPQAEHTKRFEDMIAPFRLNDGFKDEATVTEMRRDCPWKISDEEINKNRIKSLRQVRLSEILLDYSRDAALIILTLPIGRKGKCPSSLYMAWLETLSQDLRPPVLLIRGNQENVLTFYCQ
Assay: co-IP; lysates of mouse renal cortical tubules grown in control (3.5 mM K+) or high K+ (8.0 mM K+) medium; lysis buffer 20 mM Tris, 135 mM NaCl, 1% Triton, 5 mM EDTA pH 7.4; 5 ug rabbit NCC antibody or 1 ug PP1α antibody with protein A-agarose or G plus-agarose, 4 °C overnight; immunoblot

binding: binds
Substance: protein phosphatase 1α (PP1α), alpha isoform of the PP1 catalytic subunit (from UniProt P62137 1-330) (enzyme)
